Measurements as given in patent publication US7019109B2 (The Salk Institute for Bilogical Studies, priority 2001, dated 2006).

Experiment: Boc solid-phase peptide synthesis; chloromethylated resin
Details: whole synthesis, capillary zone electrophoresis

Row | Substance | final purity (method not given)
1 | (cyclo)H-Cys-Lys-Phe-Phe-D-Trp-IAmp-Thr-Tyr-Thr-Ser-Cys-OH | greater than 98% pure
2 | (cyclo)H-Cys-Lys-Phe-Phe-D-Trp-N^αMeIAmp-Thr-Tyr-Thr-Ser-Cys-OH | greater than 98% pure
